Source: PubChem BioAssay AID1347426 (Functional Genomics Laboratory (NCATS/FGL), 2020)
Hit rate of the full screen: of about 31,000 sequences, about 1,400 (4.5%) were called active.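 How the source made its calls: active means median seed-adjusted z-score above 1 or below -1; inactive means the rest.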 This is one part of the list.

assay: Novel Modifiers of Survival Motor Neuron (SMN) Protein: Gene Identification via Genome-wide siRNA Screen; settings: HEK293T SMN2-luciferase reporter, siRNA knockdown, 72 h; actives lie on both sides;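 further: luminescence tracks full-length SMN protein made from the SMN2 reporter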
Procedure, shortened: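 HEK293T cells stably expressing an SMN2 splicing/cDNA-luciferase reporter were reverse-transfected with a druggable-genome siRNA library and read by luminescence at 72 hours; hits defined by MAD score above 1.0 or below -1.0.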

| Sequence | median seed-adjusted z-score |
| --- | --- |
| GCUGAUGAGCGGAUCCUUATT against NFATC2 | inactive: 0.183 |
| CGACUAUGGUUAUGAGCGATT against SORCS1 | inactive: -0.123 |
| CCAAUCACCUGGAUAUCGATT against ABCF2 | inactive: 0.0696 |
| GAUGUUGGUUUAAAGCGAUTT against PTK2 | inactive: -0.0806 |
| CAGGACCGGUUUGAAGUUATT against DDX39 | inactive: -0.342 |
| GGGUGAAUAUUCUCGACAATT against MYH8 | inactive: 0.0648 |
| CAGCUUCGGUGACAAGGAUTT against SNX30 | inactive: -0.157 |
| CGAGAAGCUCAUAACCGAATT against ZCCHC4 | inactive: -0.0614 |
| GUUCAUAUGUGACAUCUUUTT against ZFP36L1 | inactive: -0.933 |
| CAAGUACCCUGAUAGAGUUTT against ABHD4 | inactive: -0.054 |
| AGAAAAAUCUCAAGGAAAATT against HSPE1 | inactive: 0.0101 |
| UGAACAUGCUGAACGAGAATT against MYLK3 | inactive: 0.316 |
| GUACGGAAGCAGUAUUAAATT against RBM26 | inactive: -0.967 |
| ACCCAUCCUUCAACCCUGATT against PACSIN2 | inactive: 0.73 |
| GGAAGAAGGUUCUCAAACATT against RETSAT | active: -1.7 |
| GAAUCGUUGUCAGAGCCUUTT against LMNB1 | inactive: 0.0619 |
| GACCGCGUCUUGUACAGAATT against INPP5E | inactive: -0.0321 |
| GGUGGACUGUUUUUGCCUATT against B3GNT8 | inactive: 0.236 |
| GGACUCAGGUCUCAUGUGATT against KRTAP5-7 | inactive: -0.279 |
| CUAUCAUACACUAUCCAAATT against RTN4IP1 | inactive: -0.00582 |
| UCACCAUACCUACAAAAUATT against WFDC5 | inactive: 0 |
| AGAUUAUACUUACCGUGAUTT against RBMX | inactive: 0.0941 |
| CAAGUACCUGAAAAUGCAATT against RDH5 | inactive: 0.305 |

| Sequence | median seed-adjusted z-score |
| --- | --- |
| GGAUGUUCAAGGCAGCAAATT against ASL | inactive: 0.0344 |
| ACAACAUCGGGAACGUGUATT against GPSM1 | inactive: -0.275 |
| CCAUCGCCCUGAACAUCAUTT against FBLN2 | inactive: 0.176 |
| ACCUCUCCCUGACCCUGUATT against PTPN6 | inactive: -0.515 |
| GCAUCAGGCAAAAUGCAAATT against GPR85 | inactive: 0.0452 |
| GCUGCUCCUUGAUACCCGATT against ETV7 | inactive: -0.00772 |
| GCCCAGUACUUGCUUGUUUTT against LRIG1 | inactive: 0.102 |
| CUAUCACUGUUGACCGCUATT against GPR12 | inactive: 0.437 |
| GCACCGCUACUAUAAAUCATT against PRKAG1 | inactive: 0.431 |
| CUCCAGUUGUUGACUCUGATT against SNX11 | inactive: 0.00451 |
| GCAAUUUCGUGCUCACCAATT against CPXM1 | inactive: 0.147 |
| UCAUAUAGGCAAAAUUUAATT against POU3F2 | inactive: -0.179 |
| CAAAGUGGAUUCAAAGAUUTT against PRKCH | inactive: 0.761 |
| GCUUCGCCUUUGUUAGAGATT against MAP3K4 | inactive: 0.72 |
| CACGAGGACUGGUCCAUUATT against DDX49 | inactive: 0.0816 |
| GGGAGAUGCUGGAUACGUATT against GPR137B | inactive: -0.0897 |
| GGAUGAGAGUCGCACCUAUTT against SYMPK | inactive: 0.946 |
| CAAAAUCGCACAACGAUGATT against GH2 | inactive: 0.374 |
| GGAGUGGUGUAGGAGUAAATT against GPR149 | inactive: -0.186 |
| GGACAUCGUCCAGUGCUUUTT against NAIP | inactive: -0.172 |
| GGUGUUGUCUGGUCAGUAATT against NLK | inactive: 0.256 |
| CAAGAUUACGAUUAUCUGATT against CDH3 | inactive: -0.138 |
| CCAUGUACGUCUACGUGGUTT against UTS2R | inactive: 0.0819 |

| Sequence | median seed-adjusted z-score |
| --- | --- |
| GUGUAUACUCAAACUCAAATT against CPA4 | inactive: -0.182 |
| CAGUUAAACCUCUACAACATT against PLAG1 | inactive: 0.859 |
| CGUCGAUGCUGUGCAUUGATT against POLS | inactive: -0.334 |
| CCCAAUACAGCUUACCGUATT against RECQL4 | inactive: 0.475 |
| GGAGUCACAUACAAUGAUATT against TMPRSS11B | inactive: -0.545 |
| GAAUAUGAGAUGCUAACUATT against STK31 | inactive: 0.699 |
| CACGCUAGCUGUCCCUUUUTT against ARPC4 | inactive: -0.211 |
| AGCACUGCAUGUUCACCGATT against KLHL25 | inactive: -0.0146 |
| GAGUGAUCGCGAAUAUCGATT against NEB | inactive: 0.0485 |
| UCAGCAUCUUGGUCCUGUUTT against CALCA | inactive: 0.0802 |
| CGAUUGGACGAAUUCACUUTT against GRM2 | inactive: -0.664 |
| UGGACAUUGUAGCCGCUGATT against TBX2 | inactive: 0.42 |
| GCCUUUAACUGGAGCAAAATT against MMP2 | inactive: 0.0467 |
| CGGAGUUAAUAGACCAAGATT against MLSTD2 | inactive: -0.294 |
| GGGUUCGUGUCUCUGCUCATT against MGC16703 | inactive: 0.55 |
| GCUCUACGGUGACCAGUGUTT against GCGR | inactive: -0.224 |
| GUCAUUUCUUUACCCAAGATT against NUDT5 | inactive: 0.228 |
| AAAGUACCGUUCCAACAAATT against IL27RA | inactive: 0.887 |
| CGUUAUCACCUGCAACAGATT against STK32A | inactive: 0.052 |
| GGUAGCUUUUUGAAACCUATT against TIGD7 | inactive: -0.116 |
| CCAUGUUACCAUACAAUAATT against MXD1 | inactive: -0.763 |
| CAGUUGUCAUUAAAAGUUUTT against HS3ST3A1 | inactive: -0.133 |

A run of entries from further up, as a working copy:

| Sequence | median seed-adjusted z-score |
| --- | --- |
| GAAUAUGAGAUGCUAACUATT against STK31 | inactive: 0.699 |
| CACGCUAGCUGUCCCUUUUTT against ARPC4 | inactive: -0.211 |
| AGCACUGCAUGUUCACCGATT against KLHL25 | inactive: -0.0146 |
